The text below walks through data of publication PMC10866661.

The target of the test is T1, FLAG-tagged COPA p.C1013S (C-terminal domain mutant) (human) (UniProt P53621).
T1 sequence: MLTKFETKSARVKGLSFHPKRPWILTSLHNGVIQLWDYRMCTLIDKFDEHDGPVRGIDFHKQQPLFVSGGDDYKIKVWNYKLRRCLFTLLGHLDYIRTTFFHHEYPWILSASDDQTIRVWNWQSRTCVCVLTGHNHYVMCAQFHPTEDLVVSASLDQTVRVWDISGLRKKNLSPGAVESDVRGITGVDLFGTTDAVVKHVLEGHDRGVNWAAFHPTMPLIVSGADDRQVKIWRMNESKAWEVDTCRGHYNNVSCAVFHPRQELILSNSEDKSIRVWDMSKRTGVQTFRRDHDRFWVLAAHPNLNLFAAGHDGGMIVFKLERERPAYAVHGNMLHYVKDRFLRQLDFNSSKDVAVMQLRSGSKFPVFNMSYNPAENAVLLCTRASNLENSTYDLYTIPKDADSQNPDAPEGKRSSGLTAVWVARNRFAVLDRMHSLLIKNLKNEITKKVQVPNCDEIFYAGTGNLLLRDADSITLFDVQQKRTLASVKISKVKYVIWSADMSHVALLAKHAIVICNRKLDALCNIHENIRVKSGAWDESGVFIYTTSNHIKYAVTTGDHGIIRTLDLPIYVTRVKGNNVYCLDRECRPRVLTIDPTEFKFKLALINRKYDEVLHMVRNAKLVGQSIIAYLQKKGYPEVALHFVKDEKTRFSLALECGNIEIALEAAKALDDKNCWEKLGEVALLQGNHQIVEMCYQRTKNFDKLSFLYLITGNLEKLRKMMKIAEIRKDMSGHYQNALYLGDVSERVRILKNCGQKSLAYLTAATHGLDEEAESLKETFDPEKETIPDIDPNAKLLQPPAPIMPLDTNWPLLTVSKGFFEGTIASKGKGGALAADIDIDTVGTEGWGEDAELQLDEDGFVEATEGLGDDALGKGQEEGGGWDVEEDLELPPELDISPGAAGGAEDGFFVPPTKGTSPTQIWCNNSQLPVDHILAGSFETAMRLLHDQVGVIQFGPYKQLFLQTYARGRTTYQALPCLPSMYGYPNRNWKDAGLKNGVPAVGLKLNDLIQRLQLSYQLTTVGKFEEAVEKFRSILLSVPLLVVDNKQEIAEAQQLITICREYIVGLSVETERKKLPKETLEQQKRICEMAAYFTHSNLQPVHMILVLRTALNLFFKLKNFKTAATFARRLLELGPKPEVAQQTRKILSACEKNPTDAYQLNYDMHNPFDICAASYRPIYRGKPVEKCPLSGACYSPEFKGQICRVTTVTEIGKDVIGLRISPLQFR
Kind of test: co-IP; HEK293T cells cotransfected with FLAG-tagged WT or mutant COPA, COPB2 and COPE; whole-cell extract 48 h after transfection incubated overnight with anti-DDK (FLAG) antibody, Protein G magnetic beads, washes with PBS 0.1% Tween-20; immunoblot of eluate and input for FLAG, COPB2 and COPE. In general terms: A western blot detects proteins with antibodies after separation by electrophoresis.

Results are given in words; binding and its absence hold for the method and conditions named. In cells and extracts the contact can be indirect. Some entries that bind do so weakly or less than the wild type. Tags and fused reporters may be left off the sequences shown.

B1: COPB2 (protein, UniProt P35606 1-906)
chain: MPLRLDIKRKLTARSDRVKSVDLHPTEPWMLASLYNGSVCVWNHETQTLVKTFEVCDLPVRAAKFVARKNWVVTGADDMQIRVFNYNTLERVHMFEAHSDYIRCIAVHPTQPFILTSSDDMLIKLWDWDKKWSCSQVFEGHTHYVMQIVINPKDNNQFASASLDRTIKVWQLGSSSPNFTLEGHEKGVNCIDYYSGGDKPYLISGADDRLVKIWDYQNKTCVQTLEGHAQNVSCASFHPELPIIITGSEDGTVRIWHSSTYRLESTLNYGMERVWCVASLRGSNNVALGYDEGSIIVKLGREEPAMSMDANGKIIWAKHSEVQQANLKAMGDAEIKDGERLPLAVKDMGSCEIYPQTIQHNPNGRFVVVCGDGEYIIYTAMALRNKSFGSAQEFAWAHDSSEYAIRESNSIVKIFKNFKEKKSFKPDFGAESIYGGFLLGVRSVNGLAFYDWDNTELIRRIEIQPKHIFWSDSGELVCIATEESFFILKYLSEKVLAAQETHEGVTEDGIEDAFEVLGEIQEIVKTGLWVGDCFIYTSSVNRLNYYVGGEIVTIAHLDRTMYLLGYIPKDNRLYLGDKELNIISYSLLVSVLEYQTAVMRRDFSMADKVLPTIPKEQRTRVAHFLEKQGFKQQALTVSTDPEHRFELALQLGELKIAYQLAVEAESEQKWKQLAELAISKCQFGLAQECLHHAQDYGGLLLLATASGNANMVNKLAEGAERDGKNNVAFMSYFLQGKVDACLELLIRTGRLPEAAFLARTYLPSQVSRVVKLWRENLSKVNQKAAESLADPTEYENLFPGLKEAFVVEEWVKETHADLWPAKQYPLVTPNEERNVMEEGKDFQPSRSTAQQELDGKPASPTPVIVASHTANKEEKSLLELEVDLDNLELEDIDTTDINLDEDILDD
In the case of B1, the binding entry is “binds”.
